# From PubChem BioAssay (EPA / NIEHS)
# Inconclusive means that the source gave no clear call. Such entries were picked first, then a sample of the others. Potencies beside an inconclusive call are fits to weak or partial responses and may not hold up. Calls of active or inactive are those of the source. Rule for the calls: active = hit-call score of the fitted dose curve at least 0.9, where 1 is the maximum; inconclusive = response in the unintended direction; inactive = score below 0.9.
# Molecular target: Tyrosine-protein phosphatase non-receptor type 11 (Homo sapiens) (UniProt Q06124)
# Experiment: NVS_ENZ_hPTPN11: NovaScreen (NVS) Enzymatic Assay for human Protein Tyrosine Phosphatase Non-receptor Type 11 (PTPN11) (AID 2283202)
# Description: NVS_ENZ_hPTPN11 is a biochemical, single-readout assay that uses extracted gene-proteins in a cell-free assay. Measurements were taken 0.5 hour after chemical dosing in a 384-well plate.NVS_ENZ_hPTPN11 is one of one assay component(s) measured or calculated from the NVS_ENZ_hPTPN11 assay. It is designed to make measurements of enzyme activity, a form of enzyme reporter, as detected with fluorescence intensity signals by Fluorescence and electrophoretic mobility shift technology.Data from the assay component NVS_ENZ_hPTPN11 was analyzed into 1 assay endpoint. This assay endpoint, NVS_ENZ_hPTPN11, was analyzed in the positive analysis fitting direction relative to DMSO as the negative control and baseline of activity. Using a type of enzyme reporter, loss-of-signal activity can be used to understand changes in the enzymatic activity as they relate to the gene PTPN11. Furthermore, this assay endpoint can be referred to as a primary readout, because this assay has produced multiple assay endpoints where this one serves a enzymatic activity function. To generalize the intended target to other relatable targets, this assay endpoint is annotated to the phosphatase intended target family, where the subfamily is non-receptor tyrosine phosphatase.
# Binding assays used specific radioligands (tritiated, iodinated) with non-radioactive competitive displacement ligands in agonist or antagonist protocols (as indicated) and various reference compounds and inhibitors to titrate specific binding to receptors and transporters. Most enzyme assays (CYPs, kinases, phosphatases, proteases, HDACs) used recombinant protein and specific substrates (fluorescence mostly, some colorimetric and radioactive) and inhibitors, followed by a biochemical separation of substrate and product. All assays for the biochemical HTS were initially run in duplicate at a single concentration (10 uM for CYP450 assays and 25 uM for all others). Assay-chemical combinations meeting a pre-defined threshold (e.g., 30% inhibition and other criteria defined below) were then run in singleton concentration-response format with maximum concentration of 20 uM for CYPs and 50 uM for all others. Each assay was run with positive and negative controls, and concurrent controls on every plate. The follow-up (secondary) screen tested active chemical-pairs in concentration series, as well as a few additional assays not tested in the primary screen, some selected negative inactives, and several cases re-run in the concentration series for confirmatory purposes.
Structure (SMILES),AC50,outcome
N#Cc1c(Cl)c(Cl)c(Cl)c(C#N)c1Cl,active: 40 µM,–
Oc1ccc(C(c2ccc(O)cc2)(C(F)(F)F)C(F)(F)F)cc1,–,inactive
O=S(=O)(O)C(F)(F)C(F)(F)C(F)(F)C(F)(F)C(F)(F)C(F)(F)F,inconclusive: 8.62 µM,–
CC(C)C(=O)OCC(C)(C)C(OC(=O)C(C)C)C(C)C (configuration not stated),inconclusive: 3.97 µM,–
CCCCOC(=O)c1ccccc1C(=O)OCCCC,inconclusive: 0.2 µM,–
O=C1c2ccccc2C(=O)C1C(=O)C(c1ccccc1)c1ccc(Cl)cc1 (configuration not stated),active: 9.45 µM,–
CNC(=O)Oc1cccc2c1OC(C)(C)O2,–,inactive
CC(C)(C)C(O)C(Oc1ccc(Cl)cc1)n1cncn1 (configuration not stated),inconclusive: 43.2 µM,–
CC(C)N1C(=O)c2ccccc2NS1(=O)=O,–,inactive
O=c1ssc(Cl)c1Cl,–,inactive
Nc1c(Cl)cc([N+](=O)[O-])cc1Cl,inconclusive: 0.107 µM,–
CNC(=S)S,–,inactive

# Some of the entries so far, tab-delimited.
Structure (SMILES)	AC50	outcome
CC(C)N1C(=O)c2ccccc2NS1(=O)=O	–	inactive
Nc1c(Cl)cc([N+](=O)[O-])cc1Cl	inconclusive: 0.107 µM	–
